The supplement of paper PMC10849652
The other results are listed elsewhere or left out.

Sequences of proteins named here, by UniProt entry; tags and fusion partners are left off. A change or cut given only in a name is not applied to a line headed by its entry.
UniProt P04818: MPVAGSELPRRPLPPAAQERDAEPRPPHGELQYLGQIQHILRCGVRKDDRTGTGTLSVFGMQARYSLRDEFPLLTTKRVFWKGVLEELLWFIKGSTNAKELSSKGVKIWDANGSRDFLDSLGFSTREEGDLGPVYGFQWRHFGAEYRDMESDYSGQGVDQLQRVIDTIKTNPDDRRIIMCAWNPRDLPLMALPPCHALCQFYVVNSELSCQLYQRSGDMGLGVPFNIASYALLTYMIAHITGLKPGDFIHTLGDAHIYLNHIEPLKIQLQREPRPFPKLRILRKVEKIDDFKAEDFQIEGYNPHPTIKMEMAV
UniProt Q05086: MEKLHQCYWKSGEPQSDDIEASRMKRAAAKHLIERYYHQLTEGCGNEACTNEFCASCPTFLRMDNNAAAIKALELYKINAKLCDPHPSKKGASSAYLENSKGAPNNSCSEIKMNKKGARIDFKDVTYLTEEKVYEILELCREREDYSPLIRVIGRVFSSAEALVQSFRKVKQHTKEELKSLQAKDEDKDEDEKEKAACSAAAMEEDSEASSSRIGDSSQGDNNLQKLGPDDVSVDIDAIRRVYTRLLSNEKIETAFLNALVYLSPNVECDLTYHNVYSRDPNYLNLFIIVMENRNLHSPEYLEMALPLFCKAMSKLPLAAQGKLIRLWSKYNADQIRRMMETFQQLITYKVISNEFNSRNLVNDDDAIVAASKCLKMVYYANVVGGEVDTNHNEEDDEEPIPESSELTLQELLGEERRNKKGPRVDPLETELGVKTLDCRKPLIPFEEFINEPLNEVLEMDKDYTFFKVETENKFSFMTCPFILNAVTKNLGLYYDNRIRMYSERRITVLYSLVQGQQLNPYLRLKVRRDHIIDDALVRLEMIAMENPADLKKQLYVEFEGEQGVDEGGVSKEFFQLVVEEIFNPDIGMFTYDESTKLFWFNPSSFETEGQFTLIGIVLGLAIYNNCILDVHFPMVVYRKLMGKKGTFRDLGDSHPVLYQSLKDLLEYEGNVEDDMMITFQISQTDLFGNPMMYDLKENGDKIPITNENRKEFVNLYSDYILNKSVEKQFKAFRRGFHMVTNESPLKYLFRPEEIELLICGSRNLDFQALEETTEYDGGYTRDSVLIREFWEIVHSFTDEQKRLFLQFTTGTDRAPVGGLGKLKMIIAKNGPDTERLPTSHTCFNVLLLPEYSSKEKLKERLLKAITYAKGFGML
UniProt P68036, whole entry, looked up: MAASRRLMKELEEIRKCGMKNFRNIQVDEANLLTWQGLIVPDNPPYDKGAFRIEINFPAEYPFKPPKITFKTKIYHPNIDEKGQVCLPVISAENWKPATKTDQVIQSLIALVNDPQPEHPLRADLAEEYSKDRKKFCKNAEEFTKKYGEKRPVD
UniProt Q8IWV8: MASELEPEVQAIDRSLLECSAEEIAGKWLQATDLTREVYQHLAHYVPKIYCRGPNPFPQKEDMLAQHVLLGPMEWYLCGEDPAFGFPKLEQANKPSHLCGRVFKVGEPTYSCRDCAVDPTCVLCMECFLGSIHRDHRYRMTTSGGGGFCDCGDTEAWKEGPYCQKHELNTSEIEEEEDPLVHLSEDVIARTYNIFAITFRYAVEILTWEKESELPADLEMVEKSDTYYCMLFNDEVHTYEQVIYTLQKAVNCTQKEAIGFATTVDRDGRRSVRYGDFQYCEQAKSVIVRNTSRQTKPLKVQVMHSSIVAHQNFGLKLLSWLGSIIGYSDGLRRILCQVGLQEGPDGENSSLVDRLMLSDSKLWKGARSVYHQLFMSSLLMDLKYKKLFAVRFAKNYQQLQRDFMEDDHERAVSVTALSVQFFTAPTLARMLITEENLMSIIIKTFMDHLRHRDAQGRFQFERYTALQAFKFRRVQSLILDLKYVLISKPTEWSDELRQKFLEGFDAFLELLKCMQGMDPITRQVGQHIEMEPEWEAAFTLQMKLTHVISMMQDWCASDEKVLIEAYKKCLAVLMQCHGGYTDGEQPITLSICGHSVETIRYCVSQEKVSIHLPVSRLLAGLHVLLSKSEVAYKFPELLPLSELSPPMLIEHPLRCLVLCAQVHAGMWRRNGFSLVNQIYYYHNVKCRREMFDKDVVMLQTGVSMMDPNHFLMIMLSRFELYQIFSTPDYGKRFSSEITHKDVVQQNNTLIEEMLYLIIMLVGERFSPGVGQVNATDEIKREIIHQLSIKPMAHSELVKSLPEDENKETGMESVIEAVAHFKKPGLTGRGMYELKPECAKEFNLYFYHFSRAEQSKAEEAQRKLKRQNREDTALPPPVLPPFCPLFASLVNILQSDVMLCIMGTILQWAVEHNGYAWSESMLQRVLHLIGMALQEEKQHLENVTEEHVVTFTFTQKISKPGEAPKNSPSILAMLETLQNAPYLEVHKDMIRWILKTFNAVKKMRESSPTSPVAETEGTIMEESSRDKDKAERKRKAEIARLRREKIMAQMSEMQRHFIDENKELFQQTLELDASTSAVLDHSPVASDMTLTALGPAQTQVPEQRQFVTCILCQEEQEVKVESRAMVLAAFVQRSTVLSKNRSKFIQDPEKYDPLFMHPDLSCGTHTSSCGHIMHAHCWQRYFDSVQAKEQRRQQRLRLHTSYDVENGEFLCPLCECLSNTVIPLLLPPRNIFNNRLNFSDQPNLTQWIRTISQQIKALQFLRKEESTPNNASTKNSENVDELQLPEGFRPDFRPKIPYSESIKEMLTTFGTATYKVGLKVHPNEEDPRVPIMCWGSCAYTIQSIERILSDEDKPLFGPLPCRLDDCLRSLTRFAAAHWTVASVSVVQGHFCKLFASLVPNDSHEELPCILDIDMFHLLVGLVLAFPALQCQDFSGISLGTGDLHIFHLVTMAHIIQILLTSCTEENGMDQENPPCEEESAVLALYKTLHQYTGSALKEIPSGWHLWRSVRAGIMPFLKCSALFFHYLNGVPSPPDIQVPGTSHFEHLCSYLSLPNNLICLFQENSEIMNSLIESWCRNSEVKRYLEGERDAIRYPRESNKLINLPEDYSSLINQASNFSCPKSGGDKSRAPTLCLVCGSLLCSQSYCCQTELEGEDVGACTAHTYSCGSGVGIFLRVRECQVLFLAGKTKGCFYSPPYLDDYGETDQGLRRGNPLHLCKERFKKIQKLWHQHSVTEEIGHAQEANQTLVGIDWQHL
UniProt Q16763: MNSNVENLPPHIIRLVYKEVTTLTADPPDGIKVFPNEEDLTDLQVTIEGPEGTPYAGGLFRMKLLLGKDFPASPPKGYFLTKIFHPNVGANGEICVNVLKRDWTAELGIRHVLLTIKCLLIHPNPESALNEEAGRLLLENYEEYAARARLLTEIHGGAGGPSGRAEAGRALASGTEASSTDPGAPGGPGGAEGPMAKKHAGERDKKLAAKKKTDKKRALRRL
UniProt O95881: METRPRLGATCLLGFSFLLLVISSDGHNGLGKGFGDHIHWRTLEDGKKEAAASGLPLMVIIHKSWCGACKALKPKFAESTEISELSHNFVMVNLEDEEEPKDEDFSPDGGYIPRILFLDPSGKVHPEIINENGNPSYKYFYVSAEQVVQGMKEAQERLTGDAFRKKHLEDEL
UniProt Q9BSL1: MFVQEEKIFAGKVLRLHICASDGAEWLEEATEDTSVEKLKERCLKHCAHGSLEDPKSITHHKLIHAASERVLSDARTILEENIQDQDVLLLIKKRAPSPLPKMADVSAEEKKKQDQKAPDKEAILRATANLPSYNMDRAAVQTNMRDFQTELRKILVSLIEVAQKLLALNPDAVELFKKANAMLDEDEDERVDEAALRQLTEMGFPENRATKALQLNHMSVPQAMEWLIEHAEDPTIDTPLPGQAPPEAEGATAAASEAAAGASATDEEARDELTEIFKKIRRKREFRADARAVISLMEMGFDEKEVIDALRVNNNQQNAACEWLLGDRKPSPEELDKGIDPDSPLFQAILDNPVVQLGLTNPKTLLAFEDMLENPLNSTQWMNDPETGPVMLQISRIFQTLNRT
UniProt Q9UMX0, whole entry, looked up: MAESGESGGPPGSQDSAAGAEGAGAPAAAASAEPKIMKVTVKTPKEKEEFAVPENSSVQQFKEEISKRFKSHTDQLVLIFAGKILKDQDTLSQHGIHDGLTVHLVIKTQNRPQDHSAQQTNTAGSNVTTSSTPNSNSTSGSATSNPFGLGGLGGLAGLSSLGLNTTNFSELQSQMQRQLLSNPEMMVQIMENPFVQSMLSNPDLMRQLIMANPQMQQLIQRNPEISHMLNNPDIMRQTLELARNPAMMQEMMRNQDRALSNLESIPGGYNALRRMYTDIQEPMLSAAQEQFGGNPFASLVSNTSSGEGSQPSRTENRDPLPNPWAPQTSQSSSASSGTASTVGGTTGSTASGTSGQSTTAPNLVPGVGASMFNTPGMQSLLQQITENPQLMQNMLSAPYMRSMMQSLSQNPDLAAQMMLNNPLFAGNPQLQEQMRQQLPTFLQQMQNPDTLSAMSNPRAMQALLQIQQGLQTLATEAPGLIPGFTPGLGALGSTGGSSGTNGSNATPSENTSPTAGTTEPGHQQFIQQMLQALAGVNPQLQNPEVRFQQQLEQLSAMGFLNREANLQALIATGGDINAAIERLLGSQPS
UniProt Q7Z3V4: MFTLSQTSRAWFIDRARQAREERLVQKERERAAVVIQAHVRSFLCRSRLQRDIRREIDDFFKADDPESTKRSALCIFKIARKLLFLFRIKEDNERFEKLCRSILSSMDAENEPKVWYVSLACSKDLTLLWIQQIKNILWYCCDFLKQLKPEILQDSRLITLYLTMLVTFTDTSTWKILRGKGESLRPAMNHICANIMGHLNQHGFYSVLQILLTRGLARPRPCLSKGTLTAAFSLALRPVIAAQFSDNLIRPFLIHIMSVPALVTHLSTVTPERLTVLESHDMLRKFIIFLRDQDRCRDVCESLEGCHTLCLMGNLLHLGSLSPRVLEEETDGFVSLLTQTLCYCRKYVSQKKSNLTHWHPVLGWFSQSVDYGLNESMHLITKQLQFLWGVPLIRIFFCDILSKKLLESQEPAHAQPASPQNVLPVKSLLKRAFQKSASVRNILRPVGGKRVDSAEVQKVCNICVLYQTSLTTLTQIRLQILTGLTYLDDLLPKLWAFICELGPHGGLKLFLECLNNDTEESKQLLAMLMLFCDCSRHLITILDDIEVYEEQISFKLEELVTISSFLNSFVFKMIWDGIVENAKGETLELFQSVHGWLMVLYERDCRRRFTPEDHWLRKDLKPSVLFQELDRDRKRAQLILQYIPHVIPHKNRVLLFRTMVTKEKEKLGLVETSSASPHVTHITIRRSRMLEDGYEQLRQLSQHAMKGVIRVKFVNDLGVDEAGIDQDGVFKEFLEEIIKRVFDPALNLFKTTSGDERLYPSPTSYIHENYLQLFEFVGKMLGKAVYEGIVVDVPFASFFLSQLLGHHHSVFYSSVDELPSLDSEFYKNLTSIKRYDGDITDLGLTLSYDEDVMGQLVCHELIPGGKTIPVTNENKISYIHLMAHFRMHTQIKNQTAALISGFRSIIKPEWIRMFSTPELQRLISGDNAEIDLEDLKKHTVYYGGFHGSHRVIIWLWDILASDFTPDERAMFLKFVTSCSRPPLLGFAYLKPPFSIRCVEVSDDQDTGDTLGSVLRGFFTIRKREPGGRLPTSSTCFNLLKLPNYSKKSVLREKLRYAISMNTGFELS
UniProt Q12792, whole entry, looked up: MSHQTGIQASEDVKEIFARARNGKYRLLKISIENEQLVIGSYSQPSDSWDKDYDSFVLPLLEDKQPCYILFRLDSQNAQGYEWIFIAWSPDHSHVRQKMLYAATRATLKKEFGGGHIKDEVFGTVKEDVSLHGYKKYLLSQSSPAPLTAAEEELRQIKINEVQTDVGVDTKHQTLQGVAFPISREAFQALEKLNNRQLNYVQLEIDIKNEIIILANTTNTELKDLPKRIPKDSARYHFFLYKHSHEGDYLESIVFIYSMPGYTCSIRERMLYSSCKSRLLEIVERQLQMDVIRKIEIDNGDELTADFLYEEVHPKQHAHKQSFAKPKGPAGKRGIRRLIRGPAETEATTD
UniProt Q13454: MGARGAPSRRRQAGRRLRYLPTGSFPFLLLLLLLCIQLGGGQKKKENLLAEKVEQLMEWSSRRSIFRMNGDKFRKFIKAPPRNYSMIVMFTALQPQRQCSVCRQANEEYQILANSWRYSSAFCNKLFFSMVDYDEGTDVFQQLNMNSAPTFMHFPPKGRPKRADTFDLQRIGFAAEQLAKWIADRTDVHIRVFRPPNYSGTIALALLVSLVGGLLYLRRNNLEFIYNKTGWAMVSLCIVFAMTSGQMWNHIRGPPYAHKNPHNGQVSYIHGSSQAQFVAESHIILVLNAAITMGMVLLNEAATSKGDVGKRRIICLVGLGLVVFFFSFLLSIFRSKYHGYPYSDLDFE
UniProt P61088: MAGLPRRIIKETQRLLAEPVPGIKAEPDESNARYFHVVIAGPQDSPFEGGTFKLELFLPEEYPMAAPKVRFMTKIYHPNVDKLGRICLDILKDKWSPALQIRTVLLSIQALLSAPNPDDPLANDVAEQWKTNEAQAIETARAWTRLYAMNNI

What was measured:
Experiment in all cases: log2 fold change, soluble protein after heating vs DMSO (PISA); higher = thermal stabilisation; K562 lysate, 10 uM; active = over 0.2 and 3.5 SD of the protein, either way, in both replicates (recomputed)
alvocidib = compound: CN1CC[C@H](c2c(O)cc(O)c3c(=O)cc(-c4ccccc4Cl)oc23)[C@H](O)C1 [alvocidib]
How it was run: (§1)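 Thermal stability, expressed as log-two fold change relative to solvent controls, is given from duplicates. Crude K562 extract in PBS pH 7.4 with 1 mM MgCl2, at 1 mg/mL protein, was treated with 10 μM compound for 30 min and heated in aliquots for 3 min across 48°C-58°C. After pooling, adjustment to 0.5% NP-40 at 4°C and centrifugation at 21,000xg for 90 min, supernatant protein was measured by TMTpro 16plex LC-MS/MS with channel sums equalised.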

Tubastatin A = compound: CN1CCc2c(c3ccccc3n2Cc2ccc(C(=O)NO)cc2)C1 [Tubastatin A]
How it was run: as §1

[1] = compound: CNC(=O)C1=CC=CC=C1NC2=NC(=NC=C2Cl)NC3=C(C=C(C=C3)N4CCOCC4)OC
How it was run: as §1

defactinib = compound: CNC(=O)c1ccc(Nc2ncc(C(F)(F)F)c(NCc3nccnc3N(C)S(C)(=O)=O)n2)cc1 [defactinib]
How it was run: as §1

[2] = compound: CNc1nc(-c2ccc3c(N)n[nH]c3c2)cc(N2C[C@@H](C(=O)NC3CCCCC3)CC[C@H]2C)n1
How it was run: as §1

encorafenib = compound: COC(=O)N[C@@H](C)CNc1nccc(-c2cn(C(C)C)nc2-c2cc(Cl)cc(NS(C)(=O)=O)c2F)n1 [encorafenib]
How it was run: as §1

[3] = compound: COC(=O)[C@H](CCSC)NC(=O)C1=C(C=C(C=C1)NC[C@H](CS)N)C2=CC=CC=C2
How it was run: as §1

alisertib = compound: COc1cc(Nc2ncc3c(n2)-c2ccc(Cl)cc2C(c2c(F)cccc2OC)=NC3)ccc1C(=O)O [alisertib]
How it was run: as §1

[4] = compound: COc1cc2nc(-c3cc(F)ccc3O)nc(N[C@@H]3CNC[C@H]3C(C)(C)O)c2cc1OC
How it was run: as §1

gefitinib = compound: COc1cc2ncnc(Nc3ccc(F)c(Cl)c3)c2cc1OCCCN1CCOCC1 [gefitinib]
How it was run: as §1

lapatinib = compound: CS(=O)(=O)CCNCc1ccc(-c2ccc3ncnc(Nc4ccc(OCc5cccc(F)c5)c(Cl)c4)c3c2)o1 [lapatinib]
How it was run: as §1

pictilisib = compound: CS(=O)(=O)N1CCN(Cc2cc3nc(-c4cccc5[nH]ncc45)nc(N4CCOCC4)c3s2)CC1 [pictilisib]
How it was run: as §1

crizotinib = compound: C[C@@H](Oc1cc(-c2cnn(C3CCNCC3)c2)cnc1N)c1c(Cl)ccc(F)c1Cl [crizotinib]
How it was run: as §1

[5] = compound: C[C@H](C1=CC=C(C=C1)C(=O)NC2=C3C=CNC3=NC=C2)N
How it was run: as §1

duvelisib = compound: C[C@H](Nc1ncnc2nc[nH]c12)c1cc2cccc(Cl)c2c(=O)n1-c1ccccc1 [duvelisib]
How it was run: as §1

gandotinib = compound: Cc1cc(Nc2cc(CN3CCOCC3)c3nc(C)c(Cc4ccc(Cl)cc4F)n3n2)n[nH]1 [gandotinib]
How it was run: as §1

tozasertib = compound: Cc1cc(Nc2cc(N3CCN(C)CC3)nc(Sc3ccc(NC(=O)C4CC4)cc3)n2)n[nH]1 [tozasertib]
How it was run: as §1

doramapimod = compound: Cc1ccc(-n2nc(C(C)(C)C)cc2NC(=O)Nc2ccc(OCCN3CCOCC3)c3ccccc23)cc1 [doramapimod]
How it was run: as §1

bafetinib = compound: Cc1ccc(NC(=O)c2ccc(CN3CC[C@H](N(C)C)C3)c(C(F)(F)F)c2)cc1Nc1nccc(-c2cncnc2)n1 [bafetinib]
How it was run: as §1

[6] = compound: Cc1cccc(CC(=O)N2CCc3c2ccc(-c2cn(C)c4ncnc(N)c24)c3F)n1
How it was run: as §1

Measured: log2 fold change

TYMS (UniProt P04818)
inactive: alvocidib 0.015 | Tubastatin A -0.023 | [1] 0.017 | defactinib 0.002 | [2] -0.018 | encorafenib 0.013 | [3] -0.006 | alisertib 0.021 | [4] 0.006 | gefitinib -0.024 | lapatinib -0.007 | pictilisib -0.017 | crizotinib 0.002 | [5] 0.003 | duvelisib 0.018 | gandotinib 0.058 | tozasertib 0.011 | doramapimod -0.019 | bafetinib -0.005 | [6] -0.017

UBE3A (UniProt Q05086)
inactive: alvocidib 0.008 | Tubastatin A 0.003 | [1] 0 | defactinib -0.007 | [2] 0.008 | encorafenib -0.002 | [3] -0.03 | alisertib -0.004 | [4] 0.011 | gefitinib -0.026 | lapatinib -0.013 | pictilisib -0.023 | crizotinib -0.008 | [5] -0.077 | duvelisib 0.016 | gandotinib 0 | tozasertib -0.01 | doramapimod 0.018 | bafetinib -0.034 | [6] 0.027

UBE2L3 isoform 3 (UniProt P68036)
inactive: alvocidib 0.004 | Tubastatin A 0.053 | [1] -0.001 | defactinib -0.048 | [2] 0.013 | encorafenib -0.021 | [3] -0.004 | alisertib 0.026 | [4] 0.02 | gefitinib 0.017 | lapatinib 0 | pictilisib -0.013 | crizotinib 0.036 | [5] 0.086 | duvelisib 0.025 | gandotinib -0.041 | tozasertib -0.008 | doramapimod -0.039 | bafetinib 0.053 | [6] -0.041

UBR2 isoform 4 (UniProt Q8IWV8)
inactive: alvocidib 0.008 | Tubastatin A -0.12 | [1] 0.001 | defactinib 0.024 | [2] -0.02 | encorafenib 0.026 | [3] 0.142 | alisertib -0.012 | [4] 0.04 | gefitinib 0.019 | lapatinib -0.023 | pictilisib -0.013 | crizotinib -0.082 | [5] -0.017 | duvelisib -0.017 | gandotinib -0.053 | tozasertib -0.009 | doramapimod 0.013 | bafetinib -0.082 | [6] -0.01

UBAP2L isoform 5 (UniProt Q14157)
inactive: alvocidib 0.019 | Tubastatin A 0.008 | [1] 0.007 | defactinib 0.016 | [2] 0.038 | encorafenib 0.041 | [3] -0.002 | alisertib 0.027 | [4] 0.022 | gefitinib -0.031 | lapatinib -0.022 | pictilisib -0.116 | crizotinib 0.099 | [5] -0.002 | duvelisib -0.047 | gandotinib 0.034 | tozasertib -0.049 | doramapimod -0.121 | bafetinib -0.015 | [6] -0.026

UBE2S (UniProt Q16763)
inactive: alvocidib -0.003 | Tubastatin A -0.005 | [1] 0.018 | defactinib -0.037 | [2] 0.055 | encorafenib -0.005 | [3] -0.069 | alisertib -0.006 | [4] -0.018 | gefitinib 0.01 | lapatinib 0.022 | pictilisib -0.012 | crizotinib 0.021 | [5] -0.037 | duvelisib -0.015 | gandotinib 0.023 | tozasertib 0.069 | doramapimod -0.012 | bafetinib -0.016 | [6] 0.015

TXNDC12 (UniProt O95881)
inactive: alvocidib 0.016 | Tubastatin A 0.02 | [1] -0.007 | defactinib 0.019 | [2] -0.058 | encorafenib 0.009 | [3] 0 | alisertib 0.018 | [4] -0.005 | gefitinib 0.001 | lapatinib -0.007 | pictilisib 0.014 | crizotinib 0.016 | [5] 0.024 | duvelisib 0.021 | gandotinib -0.013 | tozasertib 0.054 | doramapimod 0.017 | bafetinib 0.019 | [6] -0.028

UBAC1 (UniProt Q9BSL1)
inactive: alvocidib 0.047 | Tubastatin A 0.019 | [1] -0.004 | defactinib -0.001 | [2] 0.023 | encorafenib -0.005 | [3] -0.034 | alisertib -0.016 | [4] -0.006 | gefitinib 0.013 | lapatinib 0.002 | pictilisib 0.016 | crizotinib 0.004 | [5] 0.087 | duvelisib 0.017 | gandotinib -0.011 | tozasertib 0.037 | doramapimod 0.014 | bafetinib 0.028 | [6] -0.039

UBQLN1 (UniProt Q9UMX0)
inactive: alvocidib 0.06 | Tubastatin A 0.01 | [1] -0.011 | defactinib 0.099 | [2] 0.013 | encorafenib 0.102 | [3] -0.027 | alisertib -0.068 | [4] 0.005 | gefitinib -0.027 | lapatinib 0.026 | pictilisib -0.009 | crizotinib 0.025 | [5] 0.048 | duvelisib 0.04 | gandotinib -0.012 | tozasertib -0.028 | doramapimod -0.065 | bafetinib -0.002 | [6] -0.016

TUBGCP3 (UniProt Q96CW5)
inactive: alvocidib -0.003 | Tubastatin A -0.094 | [1] 0.026 | defactinib 0.022 | [2] -0.024 | encorafenib 0.024 | [3] 0.011 | alisertib 0.044 | [4] -0.017 | gefitinib 0.056 | lapatinib -0.017 | pictilisib 0.012 | crizotinib -0.055 | [5] -0.012 | duvelisib 0.036 | gandotinib -0.054 | tozasertib 0.027 | doramapimod 0.014 | bafetinib -0.057 | [6] 0.013

UBE3B (UniProt Q7Z3V4)
inactive: alvocidib -0.07 | Tubastatin A -0.134 | [1] 0.136 | defactinib 0.028 | [2] 0.008 | encorafenib 0.102 | [3] -0.047 | alisertib 0 | [4] 0.006 | gefitinib 0.044 | lapatinib -0.019 | pictilisib 0.025 | crizotinib -0.027 | [5] -0.174 | duvelisib 0.136 | gandotinib -0.17 | tozasertib -0.005 | doramapimod 0.083 | bafetinib -0.082 | [6] 0.203

TWF1 (UniProt Q12792)
inactive: alvocidib 0.059 | Tubastatin A 0.057 | [1] 0.014 | defactinib -0.054 | [2] -0.022 | encorafenib -0.036 | [3] -0.022 | alisertib -0.014 | [4] 0.006 | gefitinib -0.015 | lapatinib -0.015 | pictilisib -0.049 | crizotinib 0.033 | [5] -0.004 | duvelisib 0.017 | gandotinib -0.02 | tozasertib 0.025 | doramapimod 0.021 | bafetinib -0.026 | [6] -0.025

TUSC3 isoform 2 (UniProt Q13454)
inactive: alvocidib -0.08 | Tubastatin A 0.046 | [1] -0.049 | defactinib -0.013 | [2] 0.056 | encorafenib 0.003 | [3] -0.01 | alisertib 0.037 | [4] -0.005 | gefitinib -0.045 | lapatinib 0.038 | pictilisib 0 | crizotinib -0.024 | [5] -0.165 | duvelisib -0.009 | gandotinib 0.099 | tozasertib 0.006 | doramapimod 0.008 | bafetinib -0.073 | [6] 0.099

Reprinted from above (three entries):
UBE2L3 isoform 3 (UniProt P68036)
inactive: alvocidib 0.004 | Tubastatin A 0.053 | [1] -0.001 | defactinib -0.048 | [2] 0.013 | encorafenib -0.021 | [3] -0.004 | alisertib 0.026 | [4] 0.02 | gefitinib 0.017 | lapatinib 0 | pictilisib -0.013 | crizotinib 0.036 | [5] 0.086 | duvelisib 0.025 | gandotinib -0.041 | tozasertib -0.008 | doramapimod -0.039 | bafetinib 0.053 | [6] -0.041

UBR2 isoform 4 (UniProt Q8IWV8)
inactive: alvocidib 0.008 | Tubastatin A -0.12 | [1] 0.001 | defactinib 0.024 | [2] -0.02 | encorafenib 0.026 | [3] 0.142 | alisertib -0.012 | [4] 0.04 | gefitinib 0.019 | lapatinib -0.023 | pictilisib -0.013 | crizotinib -0.082 | [5] -0.017 | duvelisib -0.017 | gandotinib -0.053 | tozasertib -0.009 | doramapimod 0.013 | bafetinib -0.082 | [6] -0.01

UBAP2L isoform 5 (UniProt Q14157)
inactive: alvocidib 0.019 | Tubastatin A 0.008 | [1] 0.007 | defactinib 0.016 | [2] 0.038 | encorafenib 0.041 | [3] -0.002 | alisertib 0.027 | [4] 0.022 | gefitinib -0.031 | lapatinib -0.022 | pictilisib -0.116 | crizotinib 0.099 | [5] -0.002 | duvelisib -0.047 | gandotinib 0.034 | tozasertib -0.049 | doramapimod -0.121 | bafetinib -0.015 | [6] -0.026

The list goes on:

UBE2N (UniProt P61088)
inactive: alvocidib 0.015 | Tubastatin A 0.022 | [1] 0.002 | defactinib 0.028 | [2] 0.033 | encorafenib 0.02 | [3] -0.017 | alisertib 0.017 | [4] -0.003 | gefitinib -0.025 | lapatinib -0.008 | pictilisib -0.017 | crizotinib -0.004 | [5] 0.031 | duvelisib 0.055 | gandotinib -0.014 | tozasertib 0.022 | doramapimod 0.033 | bafetinib -0.007 | [6] 0.003

TXNL1 (UniProt O43396)
inactive: alvocidib 0.019 | Tubastatin A 0.032 | [1] -0.014 | defactinib 0.014 | [2] 0.014 | encorafenib 0.004 | [3] 0.013 | alisertib 0 | [4] 0.002 | gefitinib 0.012 | lapatinib -0.003 | pictilisib 0.002 | crizotinib -0.004 | [5] -0.018 | duvelisib -0.007 | gandotinib -0.006 | tozasertib -0.021 | doramapimod -0.008 | bafetinib -0.014 | [6] 0.012

UBTF (UniProt P17480)
inactive: alvocidib 0.026 | Tubastatin A -0.135 | [1] -0.008 | defactinib 0.007 | [2] 0.004 | encorafenib -0.002 | [3] 0.073 | alisertib 0.055 | [4] -0.018 | gefitinib 0.045 | lapatinib -0.013 | pictilisib -0.024 | crizotinib -0.037 | [5] 0.071 | duvelisib -0.015 | gandotinib -0.103 | tozasertib 0.004 | doramapimod -0.008 | bafetinib -0.039 | [6] -0.011
